Laboratory results: PMC7819943, “Rice protein-binding microarrays: a tool to detect cis-acting elements near promoter regions in rice”
This is one part of the list.

The chains behind the UniProt entries cited, without tags or fusion partners.
UniProt Q0JBA9, entry or part of it: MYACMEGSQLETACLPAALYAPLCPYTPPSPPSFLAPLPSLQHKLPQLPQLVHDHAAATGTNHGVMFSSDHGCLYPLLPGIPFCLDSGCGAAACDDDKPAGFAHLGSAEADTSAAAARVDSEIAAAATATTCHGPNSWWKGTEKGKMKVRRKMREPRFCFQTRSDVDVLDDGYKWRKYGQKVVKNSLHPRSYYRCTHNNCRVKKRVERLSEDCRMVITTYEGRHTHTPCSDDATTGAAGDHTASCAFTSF

biological target: OsWRKY34 (Oryza sativa, UniProt Q0JBA9 1-250); assay: protein-binding microarray (RPBM); PBS, 2% BSA, 51.3 ng/ul salmon testes DNA, 50 uM zinc acetate, 200 nM TF, 25 C, 1 h; high values mean tight binding; conditions: protein: recombinant; tags: N-terminal polyhistidine and DsRed monomer fusion (pET32a); label: CyDye5-dUTP incorporated in the synthesized complementary strand; 3' TTTTT single-stranded linker to array surface; dsDNA, one strand shown
Procedure, shortened: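 The binding signal is fluorescence intensity per feature, in arbitrary units, read on an Axon 4000B scanner. Polyhistidine- and DsRed-tagged transcription factors (N-terminal fusions) from E. coli BL21-CodonPlus were purified on Ni–NTA and applied at 200 nM for 1 h at 25 °C to a double-stranded, BSA-blocked custom Agilent array in buffer with 50 µM zinc acetate.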

Q: “CGCCGACGTCACCGCCACCCGTTGACATTGCTCTATAAAACGGAGTCACCTAGTGCAG” was tested. Which binding signal did it give?
A: Its binding signal is 8900 fluorescence intensity (a.u.).

Q: “ATTTGAAAATATTGTTTGAAGTTGTCATATTTTCAAATTCCGGAGTCACCTAGTGCAG” was tested. Which binding signal did it give?
A: Its binding signal is 8450 fluorescence intensity (a.u.).

Q: With “CATATGTAATGTATACTGTTCGTTTTCTTTTTTCCATGATCGGAGTCACCTAGTGCAG” as the sequence, how does the binding signal read?
A: The binding signal was 9430 fluorescence intensity (a.u.).

Q: With “AATTGGACTCGTTTGACCGTTTGATTTATGACTCCATATTCGGAGTCACCTAGTGCAG” as the sequence, how does the binding signal read?
A: Its binding signal is 12100 fluorescence intensity (a.u.).

Q: With “CGTTGCAGATCCTGGTTCTTCCACTGCCTTTTGGCTTTTGCGGAGTCACCTAGTGCAG” as the sequence, how does the binding signal read?
A: The binding signal was 9100 fluorescence intensity (a.u.).

Q: With “CGCGCGCCGTCTGAGTTTTCATTTTGGATCTTGCGTGGGTCGGAGTCACCTAGTGCAG” as the sequence, how does the binding signal read?
A: The binding signal was 12200 fluorescence intensity (a.u.).

Q: For “CTGGTCTCTGCCCTTTAGCCTTTATTCGTCCTGTTCCTTTCGGAGTCACCTAGTGCAG”, which binding signal is on record?
A: The binding signal was 11200 fluorescence intensity (a.u.).

Q: Which binding signal does the source give for “TCTAGTGCCTTTGTTGCTTCATGCCCCTGACTAAGTTCATCGGAGTCACCTAGTGCAG” here?
A: Its binding signal is 11900 fluorescence intensity (a.u.).

Q: Which binding signal does the source give for “ATATGCATTCTTTCATTCACTTGTCCATTCTTCTTTGCCTCGGAGTCACCTAGTGCAG” here?
A: The binding signal was 8850 fluorescence intensity (a.u.).

Q: With “GCACATTGATCCAGAAAGCAATTTTTTCTTCATTTTTCATCGGAGTCACCTAGTGCAG” as the sequence, how does the binding signal read?
A: The binding signal was 9050 fluorescence intensity (a.u.).

Q: How did the binding signal turn out when “CATGTTTGGCAGTGTTCGTTCCCACGTTTCGATATAGCGACGGAGTCACCTAGTGCAG” was run?
A: Its binding signal is 10900 fluorescence intensity (a.u.).

Q: Which binding signal does the source give for “ATTTTTATTTTCATGGTGTTTTAGACCATCCTTAATTTTACGGAGTCACCTAGTGCAG” here?
A: The binding signal was 8490 fluorescence intensity (a.u.).

Q: How did the binding signal turn out when “TGGTTATTGGCTATTCTGAACTATTTTTATTTACTGAAGCCGGAGTCACCTAGTGCAG” was run?
A: The binding signal was 8850 fluorescence intensity (a.u.).

Q: With “GATCCTCTGCCCCTTTTACTCGCATCCTCCCATGTGCAAACGGAGTCACCTAGTGCAG” as the sequence, how does the binding signal read?
A: Its binding signal is 9400 fluorescence intensity (a.u.).

Q: “TTTCTTGAACTTGGGGCCATTTTTCCACGTTGTAACTGTCCGGAGTCACCTAGTGCAG” was tested. Which binding signal did it give?
A: The binding signal was 9410 fluorescence intensity (a.u.).

Q: With “CTCTGTTTCAGGTTATAAGACTTTCTAGTATTGCCCACATCGGAGTCACCTAGTGCAG” as the sequence, how does the binding signal read?
A: Its binding signal is 8700 fluorescence intensity (a.u.).

Q: With “ACTCACGCTTTAACACCAGGAATCTTATCTCTATCTCATCCGGAGTCACCTAGTGCAG” as the sequence, how does the binding signal read?
A: The binding signal was 8460 fluorescence intensity (a.u.).

Q: How did the binding signal turn out when “TCAATCTGGCGGGGTTTATTTGTGACCCTCGATCGGTCAACGGAGTCACCTAGTGCAG” was run?
A: Its binding signal is 12400 fluorescence intensity (a.u.).

Q: How did the binding signal turn out when “ATGAATAGTACTTTATGTGTGACTAATATTTTTAATTTTTCGGAGTCACCTAGTGCAG” was run?
A: The binding signal was 8040 fluorescence intensity (a.u.).

Q: How did the binding signal turn out when “GAACTCCACGGCCACCTCCGGTCAAACCGCAGTGCTCACCCGGAGTCACCTAGTGCAG” was run?
A: The binding signal was 8260 fluorescence intensity (a.u.).

Q: With “CTCCCATCTCGTCCTCGCTTCCTGCTGGAGCTCGGAACTCCGGAGTCACCTAGTGCAG” as the sequence, how does the binding signal read?
A: Its binding signal is 8620 fluorescence intensity (a.u.).

Q: With “CATAAACGACGCCGCATCAGACAAACTAAACGCGACAATACGGAGTCACCTAGTGCAG” as the sequence, how does the binding signal read?
A: The binding signal was 8100 fluorescence intensity (a.u.).

Q: “GACCCGGTCCTGATCCTACCCCGCCGCGCGGCCTCTTCCTCGGAGTCACCTAGTGCAG” was tested. Which binding signal did it give?
A: Its binding signal is 10200 fluorescence intensity (a.u.).

Q: How did the binding signal turn out when “AATCTGTCACCTCGCAGCTTCACGCTTCCACGCACACAGACGGAGTCACCTAGTGCAG” was run?
A: The binding signal was 11400 fluorescence intensity (a.u.).

Q: Which binding signal does the source give for “TTTGATCTTGTGGTGGTTTGGGTGATCGGTGGCGATGGGGCGGAGTCACCTAGTGCAG” here?
A: Its binding signal is 11000 fluorescence intensity (a.u.).

Q: Which binding signal does the source give for “CCTTGCCTAGTCGCTGCTGCTGTTTATAAATTTCAACTCCCGGAGTCACCTAGTGCAG” here?
A: Its binding signal is 8810 fluorescence intensity (a.u.).

Q: “CTGGCGCTTCCGCTTCTTCTCCGGCGACGGCGCGGCGGCGCGGAGTCACCTAGTGCAG” was tested. Which binding signal did it give?
A: The binding signal was 9260 fluorescence intensity (a.u.).

Q: Which binding signal does the source give for “ACTTAGGTTATGGTTGGGACCCACTTGTCAGTGTCAGTTCCGGAGTCACCTAGTGCAG” here?
A: Its binding signal is 10700 fluorescence intensity (a.u.).

Q: How did the binding signal turn out when “TGCGTTTCCCGTCAGCCCTGTCACGCCGCCGCCGGTCGCCCGGAGTCACCTAGTGCAG” was run?
A: The binding signal was 12000 fluorescence intensity (a.u.).

Q: For “TGAGTCGTGTCCCATCCCACCTGCGCACCCAGCCCGGTAACGGAGTCACCTAGTGCAG”, which binding signal is on record?
A: The binding signal was 8210 fluorescence intensity (a.u.).

Q: Which binding signal does the source give for “ACATATTGGTTGACTTTTTGCCGGGTCCACCGATTGGCACCGGAGTCACCTAGTGCAG” here?
A: Its binding signal is 17700 fluorescence intensity (a.u.).

Q: For “CCTCGCGCTACTCACCATCGCGACCGCGTTCCTCCTCACACGGAGTCACCTAGTGCAG”, which binding signal is on record?
A: The binding signal was 10400 fluorescence intensity (a.u.).

Q: “ACCATATCTCTGTCTTGTCTCCCTTTCACATGTCACCTCTCGGAGTCACCTAGTGCAG” was tested. Which binding signal did it give?
A: The binding signal was 8380 fluorescence intensity (a.u.).

Q: With “CTGTTCCGCCACCTACCACCGAGCCGTTGTCTCCCATGACCGGAGTCACCTAGTGCAG” as the sequence, how does the binding signal read?
A: Its binding signal is 10100 fluorescence intensity (a.u.).

Q: Which binding signal does the source give for “ATTTTACAGGGTTGTACCGTTTGATACGATCGTCGTTCCACGGAGTCACCTAGTGCAG” here?
A: The binding signal was 9750 fluorescence intensity (a.u.).

Q: For “CTCCGCTCGCTCTCCACCGCTCGCCGCGCACGCCTCACCGCGGAGTCACCTAGTGCAG”, which binding signal is on record?
A: Its binding signal is 9920 fluorescence intensity (a.u.).

Q: How did the binding signal turn out when “CCTCTGTCGCCGCCATCGCCGGTCACTCTTCCACCTGCACCGGAGTCACCTAGTGCAG” was run?
A: Its binding signal is 12900 fluorescence intensity (a.u.).

Q: How did the binding signal turn out when “GTTCCCTTACCGCACTGTAAGTTTGTTAATTATGCTCCTACGGAGTCACCTAGTGCAG” was run?
A: The binding signal was 8950 fluorescence intensity (a.u.).

Q: With “TTGACCGCCCTGACTGCCCCGTACCAGCGACAGCTTTTCCCGGAGTCACCTAGTGCAG” as the sequence, how does the binding signal read?
A: Its binding signal is 10200 fluorescence intensity (a.u.).

Q: With “TATCCCTTGTCCTCGCAACCCCGCTTCCTTCTCTCCTCTCCGGAGTCACCTAGTGCAG” as the sequence, how does the binding signal read?
A: Its binding signal is 10500 fluorescence intensity (a.u.).

Q: With “CCCTGCCGCCGGCGCAGGCGCCGCGCCTTTCTCGGTGCTCCGGAGTCACCTAGTGCAG” as the sequence, how does the binding signal read?
A: Its binding signal is 10100 fluorescence intensity (a.u.).

Q: “TTCAAAATGTTTGATACCGTTGACTTTTTAGCACATTTTGCGGAGTCACCTAGTGCAG” was tested. Which binding signal did it give?
A: Its binding signal is 29400 fluorescence intensity (a.u.).

Q: “CAACATTTAATACAACATTTAGTTTTACTGTGCATTGCTTCGGAGTCACCTAGTGCAG” was tested. Which binding signal did it give?
A: The binding signal was 8670 fluorescence intensity (a.u.).

Q: Which binding signal does the source give for “TAGTCTTTTGTCTCTCTATTTTTTTTTGGGCAAGTCTTTTCGGAGTCACCTAGTGCAG” here?
A: Its binding signal is 12100 fluorescence intensity (a.u.).

Q: How did the binding signal turn out when “TTTGTGGTGGGTTCTAACTATTTTTTAATTGTGGCATAGTCGGAGTCACCTAGTGCAG” was run?
A: The binding signal was 9800 fluorescence intensity (a.u.).

Q: For “ATCTTCGCAACTGCCTCCTTCCGCGTCGCGAGGTGTTTTCCGGAGTCACCTAGTGCAG”, which binding signal is on record?
A: The binding signal was 9410 fluorescence intensity (a.u.).

Q: Which binding signal does the source give for “TTTTAAAAAAGTCAACGATATTAAATATTTAGGGACGGATCGGAGTCACCTAGTGCAG” here?
A: Its binding signal is 8220 fluorescence intensity (a.u.).

Q: How did the binding signal turn out when “CCTCATCTTGGCCACGCGCACCCCGGCCACGCGTACATGGCGGAGTCACCTAGTGCAG” was run?
A: Its binding signal is 8350 fluorescence intensity (a.u.).

Q: With “GGTTTGGTTGGGGTTTAGGTCTCGGGGCGGCGCGGAGGCGCGGAGTCACCTAGTGCAG” as the sequence, how does the binding signal read?
A: Its binding signal is 17700 fluorescence intensity (a.u.).

Q: Which binding signal does the source give for “AAGATTTCGTTGGGTTTTTCTCTGTTACTTGACTAATACTCGGAGTCACCTAGTGCAG” here?
A: Its binding signal is 8060 fluorescence intensity (a.u.).

Q: “CATCCATATTAGCTTCCAACACAAGGAGATCACAACAATGCGGAGTCACCTAGTGCAG” was tested. Which binding signal did it give?
A: Its binding signal is 9010 fluorescence intensity (a.u.).

Q: Which binding signal does the source give for “CAGCCTGTACTTGTCCTTGTTGCCGACGATCTCCTCAAAGCGGAGTCACCTAGTGCAG” here?
A: Its binding signal is 9750 fluorescence intensity (a.u.).

Q: With “ACTTCAAACGGCCGCCGAATCTGCATACGACCTCCATTTTCGGAGTCACCTAGTGCAG” as the sequence, how does the binding signal read?
A: Its binding signal is 11000 fluorescence intensity (a.u.).

Q: “AATCACTGGTATTACGGCTACCTCATGTTTTGAATCAGCTCGGAGTCACCTAGTGCAG” was tested. Which binding signal did it give?
A: The binding signal was 8760 fluorescence intensity (a.u.).
